Patent US20240199754A1 (VANCOUVER BIOTECH LTD., priority 2021, published 2024)
Results are given in words; binding and its absence hold for the method and conditions named. Some results given as binding are weak or reduced against the parent protein; the word gives no strength.

By UniProt entry, the sequences of proteins in these tests, tags left out. Where a name states a change or a piece, a line headed by the entry shows the natural chain unless it says otherwise.
UniProt Q9MZI6: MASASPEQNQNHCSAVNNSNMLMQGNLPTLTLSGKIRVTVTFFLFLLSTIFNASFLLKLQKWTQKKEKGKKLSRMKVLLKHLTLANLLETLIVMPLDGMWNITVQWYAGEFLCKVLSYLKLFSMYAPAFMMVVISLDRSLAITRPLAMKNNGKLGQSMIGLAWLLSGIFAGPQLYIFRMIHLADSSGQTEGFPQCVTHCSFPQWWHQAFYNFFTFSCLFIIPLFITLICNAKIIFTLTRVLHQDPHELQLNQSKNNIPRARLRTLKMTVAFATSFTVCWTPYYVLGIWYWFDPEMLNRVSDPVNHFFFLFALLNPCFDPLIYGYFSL

Biological target: T1, N1-29 synthetic oligopeptide of dog GnRH receptor (dog) (UniProt Q9MZI6)
T1 sequence (peptide): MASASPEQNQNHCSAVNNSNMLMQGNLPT
Assay: ELISA on well-coated N1-29 peptide, goat anti-human IgG-alkaline phosphatase, OD 405 nm

- binding: binds
B1: GHR-106(hIgG4), humanized IgG4 GHR-106 monoclonal antibody (antibody, V domains shown)
VH: QVQLQESGPGLVKPSETLSLTCTVSGFSLSRYSVHWIRQPPGKGLEWIGMIWGGGSTDYNPSLKSRVTISKDNSKSQVFLKMSSVTAADTAMYYCARGNDGYYSFAYWGQGTLVTVSS
VL: DIVMTQSPDSLAVSLGERATINCKSSQSLLNSRTRKNYLAWYQQKPGQSPKLLIYWASTRESGVPDRFSGSGSGTDFTLTISSLQAEDVAVYYCKQSYNLYTFGQGTKLEIKR
notes: Humanized IgG4
